Reference: PMC11348242
These are yes or no findings as the source states them, for the method shown. In cells and extracts the contact can be indirect. Some entries that bind do so weakly or less than the wild type.

Protein sequences, listed by entry. Tags and fused reporters are not part of them.
UniProt P13010: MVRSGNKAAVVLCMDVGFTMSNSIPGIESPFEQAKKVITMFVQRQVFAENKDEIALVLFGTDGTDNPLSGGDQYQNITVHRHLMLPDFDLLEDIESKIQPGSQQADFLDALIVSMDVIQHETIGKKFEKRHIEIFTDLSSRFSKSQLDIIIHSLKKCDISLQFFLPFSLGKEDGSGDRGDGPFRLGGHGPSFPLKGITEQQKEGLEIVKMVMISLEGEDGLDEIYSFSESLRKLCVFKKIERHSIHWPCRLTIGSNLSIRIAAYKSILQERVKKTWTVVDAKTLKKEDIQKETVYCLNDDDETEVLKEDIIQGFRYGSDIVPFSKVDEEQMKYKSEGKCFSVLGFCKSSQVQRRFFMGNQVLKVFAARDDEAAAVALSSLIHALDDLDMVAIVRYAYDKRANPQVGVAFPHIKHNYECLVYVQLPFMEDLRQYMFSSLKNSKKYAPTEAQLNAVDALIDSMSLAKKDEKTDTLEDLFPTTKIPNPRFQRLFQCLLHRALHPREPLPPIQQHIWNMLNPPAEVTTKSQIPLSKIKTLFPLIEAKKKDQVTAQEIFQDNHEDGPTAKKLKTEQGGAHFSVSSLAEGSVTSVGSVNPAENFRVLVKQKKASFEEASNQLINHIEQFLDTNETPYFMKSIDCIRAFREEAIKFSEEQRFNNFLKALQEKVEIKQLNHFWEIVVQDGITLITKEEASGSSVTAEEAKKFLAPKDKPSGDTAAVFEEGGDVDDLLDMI
UniProt P12956: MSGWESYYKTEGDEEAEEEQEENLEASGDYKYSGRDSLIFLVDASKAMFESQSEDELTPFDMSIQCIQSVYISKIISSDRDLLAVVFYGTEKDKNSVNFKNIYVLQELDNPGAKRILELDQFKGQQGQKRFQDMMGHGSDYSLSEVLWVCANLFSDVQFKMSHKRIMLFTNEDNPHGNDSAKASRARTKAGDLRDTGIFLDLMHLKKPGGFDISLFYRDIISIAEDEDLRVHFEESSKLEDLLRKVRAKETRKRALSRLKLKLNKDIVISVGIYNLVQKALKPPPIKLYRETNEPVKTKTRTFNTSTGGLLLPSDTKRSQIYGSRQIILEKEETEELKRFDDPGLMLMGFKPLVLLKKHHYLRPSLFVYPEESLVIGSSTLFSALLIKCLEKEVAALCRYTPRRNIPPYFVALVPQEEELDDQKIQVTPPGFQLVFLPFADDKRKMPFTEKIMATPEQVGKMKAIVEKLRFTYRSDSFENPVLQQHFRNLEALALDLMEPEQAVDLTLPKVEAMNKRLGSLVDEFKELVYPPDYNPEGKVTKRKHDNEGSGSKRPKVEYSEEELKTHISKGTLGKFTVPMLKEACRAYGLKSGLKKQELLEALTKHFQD

What was measured:
[1] = molecular target: Ku80 (human (endogenous in HeLa and HEK293)) (UniProt P13010); experiment: co-IP; HEK293 cells, with or without RSL3 (4 µM, 2 h); immunoprecipitation with MIF, Ku70 or Ku80 antibodies, then immunoblot; rabbit and mouse IgG as negative controls
[2] = molecular target: Ku70 (human (endogenous in HeLa and HEK293)) (UniProt P12956); experiment: as above

B1: macrophage migration inhibitory factor (MIF) (protein, UniProt P14174 1-115)
chain: MPMFIVNTNVPRASVPDGFLSELTQQLAQATGKPPQYIAVHVVPDQLMAFGGSSEPCALCSLHSIGKIGGAQNRSYSKLLCGLLAERLRISPDRVYINYYDMNAANVGWNNSTFA
- binding [1]: binds
- binding [2]: binds
